The values below come from PMC7938888, “Antidepressant drugs act by directly binding to TRKB neurotrophin receptors” (Cell, 2021).

Protein sequences, listed by entry. Tags and fused reporters are not part of them. Residues count along the entry.
UniProt P15209, 32-821: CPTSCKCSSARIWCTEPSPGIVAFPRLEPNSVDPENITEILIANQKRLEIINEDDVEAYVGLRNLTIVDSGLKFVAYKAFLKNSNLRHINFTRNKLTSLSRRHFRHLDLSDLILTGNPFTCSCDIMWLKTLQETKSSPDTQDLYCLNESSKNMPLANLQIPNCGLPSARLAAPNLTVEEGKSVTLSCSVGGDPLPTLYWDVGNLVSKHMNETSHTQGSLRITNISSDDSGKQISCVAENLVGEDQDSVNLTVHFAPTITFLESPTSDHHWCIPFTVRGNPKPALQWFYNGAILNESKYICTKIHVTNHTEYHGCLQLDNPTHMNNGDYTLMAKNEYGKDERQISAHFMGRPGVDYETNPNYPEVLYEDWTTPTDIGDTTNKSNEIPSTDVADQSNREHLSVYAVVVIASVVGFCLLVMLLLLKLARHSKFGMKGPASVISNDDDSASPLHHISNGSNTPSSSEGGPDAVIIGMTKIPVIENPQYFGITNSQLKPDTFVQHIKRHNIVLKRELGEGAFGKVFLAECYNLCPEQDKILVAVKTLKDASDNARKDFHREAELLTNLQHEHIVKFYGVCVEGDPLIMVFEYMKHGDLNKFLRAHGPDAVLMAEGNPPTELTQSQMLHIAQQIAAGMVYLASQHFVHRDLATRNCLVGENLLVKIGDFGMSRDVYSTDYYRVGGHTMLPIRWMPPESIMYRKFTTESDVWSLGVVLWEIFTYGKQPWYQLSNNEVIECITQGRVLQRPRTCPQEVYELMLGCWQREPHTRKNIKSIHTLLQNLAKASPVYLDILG

In this assay the target is TRKB (Mus musculus, UniProt P15209). Nature of the assay: Cell-free ligand binding assay on immobilised TRKB from HEK293T lysates. More on the design: wild-type GFP-tagged full length TRKB or the GFP-tagged Y433F TRKB mutant; host or cells: HEK293T. The procedure:
The cell-free assays (binding assays) were performed in white 96-well plates, based on the protocol used for western-blotting or ELISA ([Baeza-Raja et al., 2016]; [Das et al., 2015]). The plates were precoated with anti-GFP, anti-FLAG, anti-TRK or anti-TRKB antibody (1:1000) in carbonate buffer (pH 9.8), ON at 4°C. Following blocking with 3% BSA in PBS buffer (2 h at RT), 120 ug of total protein from each sample (of lysates from HEK293T cells transfected to overexpress GFP-TRKB.wt or GFP-TRKB.Y433F) were added and incubated overnight at 4°C under agitation. […] The luminescence was determined via HRP-conjugated streptavidin (1:10000, 1h, RT) activity reaction with ECL by a plate reader. The luminescence signal from blank wells (containing all the reagents but the sample lystates, substituted by the blocking buffer) was used as background. The specific signal was then calculated by subtracting the values of blank wells from the values of the samples with matched concentration of the biotinylated ligand. For Figure 2E, the precipitated TRKB.wt or Y433F was incubated with tritiated imipramine (0-30μM) and the radioactive emission of the ligand was determined by scintillation (OptiPhase Supermix cocktail: #1200-439; MicroBeta2, Perkin-Elmer). […]

Consider `CNCCC(Oc1ccc(C(F)(F)F)cc1)c1ccccc1` (stereo not shown) [FLX, fluoxetine], for which the Ki was found to be 1690 nM.

For orientation: Ki means the dissociation constant of the complex between target and ligand, obtained from inhibition or displacement.
